Data as given in publication PMC12431657, “Discovery and mechanistic insights of dibenzoylmethane as a broad spectrum inhibitor of coronavirus” (PLOS Pathogens, 2025).
Counter-ions that a name gives are not always drawn. Like-named read-outs stand apart in the source and are kept apart here. The whole screen tested about 3,300 compounds, of which about 95 (3%) showed an effect of 50% or more. Some of the results follow.

System: HCoV-229E
Parameters: species or system Huh-7; HTS, protection from HCoV-229E induced cell death, luminescent cell viability (CellCounting-Lite 2.0), inhibition rate
Conditions: 24 h post infection, 1 h compound pre-incubation, 10 µM, inhibitor

SMILES	229E Inhibition rate [%]	229E Inhibition rate (229E Inhibition rate, 24 h) [%]
CC(=O)O[C@H]1CC[C@]2(C)C3=C(CC[C@H]2C1(C)C)[C@]1(C)CC[C@H]([C@@H](CCC=C(C)C)C(=O)O)[C@@]1(C)CC3 [Tsugaric acid A]	14.6	
Cc1c2ccncc2c(C)c2c1[nH]c1ccccc12 [Ellipticine (hydrochloride)]	3.3	
CC1(C)C=Cc2c(ccc(-c3coc4cc(O)ccc4c3=O)c2O)O1 [Glabrone]	9.7	
CC(C)=C/C=C1\O[C@@H]2CC(C)=CC(=O)[C@@H]2[C@]1(C)O [Bisabolangelone]	30	
O=C(O)c1ccc(O)c(O)c1 [Protocatechuic acid]	4.4	
CC(C)NCC(O)COc1cccc2ccccc12 (centres unmarked) [Propranolol]		13.6
O=C1CCCCN1 [2-Piperidone]	11.6	
C=C(C)[C@@H]1CC=C(C)CC1 [(-)-Limonene]	28.1	
CC1NC(=O)CNC1=O (centres unmarked) [Cyclo(Ala-Gly)]	39.9	
C=C(C(=O)c1c(OC)cc2c(c1OC)OCO2)c1ccccc1O [Biliatresone]	1.5	
CCC(=O)C(C)=O [2,3-Pentanedione]	0	
CCCCCCCCCCCCCCCCCCOCC(O)CO (centres unmarked) [Batilol]	11.7	
C=C1C(=O)O[C@H]2C[C@@H](C)[C@@H]3[C@@H](OC(C)=O)C[C@H](O)[C@@]3(C)[C@@H](OC(C)=O)[C@H]12 [Britannin]	3	
N#Cc1ccc(C(c2ccc(C#N)cc2)n2cncn2)cc1 [Letrozole]	10.7	
CC1=C[C@H]2[C@@]3(O)[C@H](C)[C@@H](O)[C@]4(O)[C@H]([C@@H]3C=C(CO)C[C@]2(O)C1=O)C4(C)C [Phorbol]	48.6	
N[C@@H](Cc1c[nH]cn1)C(=O)O [L-Histidine (hydrochloride hydrate)]		7
CC(C)CC(N)=O [Isovaleramide]	31.1	
CC1(C)CC[C@]2(C(=O)O[C@@H]3O[C@H](CO)[C@@H](O)[C@H](O)[C@H]3O)CC[C@]3(C)C(=CC[C@@H]4[C@@]5(C)CC[C@H](O[C@@H]6O[C@H](C(=O)O)[C@@H](O)[C@H](O)[C@H]6O)C(C)(C)[C@@H]5CC[C@]43C)[C@@H]2C1 [Chikusetsusaponin Iva]	16	
COc1ccc(CCO)cc1 [4-Methoxyphenethyl alcohol]	5.3	
COc1c2occc2cc2ccc(=O)oc12 [Methoxsalen]	9.9	

One compound at a time (already shown).
`CC(=O)O[C@H]1CC[C@]2(C)C3=C(CC[C@H]2C1(C)C)[C@]1(C)CC[C@H]([C@@H](CCC=C(C)C)C(=O)O)[C@@]1(C)CC3` [Tsugaric acid A] is listed with 229E Inhibition rate [%]: 14.6
`CCCCCCCCCCCCCCCCCCOCC(O)CO` (centres unmarked) [Batilol] is listed with 229E Inhibition rate [%]: 11.7
`CC1NC(=O)CNC1=O` (centres unmarked) [Cyclo(Ala-Gly)] is listed with 229E Inhibition rate [%]: 39.9
`COc1ccc(CCO)cc1` [4-Methoxyphenethyl alcohol] is listed with 229E Inhibition rate [%]: 5.3

Later entries

SMILES	229E Inhibition rate [%]	229E Inhibition rate (229E Inhibition rate, 24 h) [%]
O=C(N[C@@H](Cc1ccccc1)C(=O)N[C@H](CO)Cc1ccccc1)c1ccccc1 [Aurantiamide]	23.1	
Oc1ccc2ccccc2c1 [2-Naphthol]	16.6	
CSCCC(NC(C)=O)C(=O)O (racemic) [N-Acetyl-DL-methionine]	32.7	
C=C[C@H]1[C@H](O[C@@H]2O[C@H](CO)[C@@H](O)[C@H](O)[C@H]2O)OC=C2C(=O)N3CCc4c([nH]c5ccccc45)[C@@H]3C[C@H]21 [Strictosamide]	26.8	
OC[C@@H](O)[C@@H](O)[C@H](O)[C@@H](O)CO [D-Sorbitol]	32.7	
O=C1CCN([C@@H]2O[C@H](CO)[C@@H](O)[C@H]2O)C(=O)N1 [5,6-Dihydrouridine]	10.1	
COc1cc2c(cc1OC)-c1cc3ccc(OC)c(O)c3c[n+]1CC2 [Palmaturbine]		10
CC1(C)O[C@H]2CC(=O)OC[C@@]23[C@H]1CC(=O)[C@@]1(C)C2=CC(=O)O[C@@H](c4ccoc4)[C@]2(C)CC[C@@H]13 [Deoxylimonin]	9.8	
C[C@@H]1O[C@@H](O[C@H]2C(=O)c3c(O)cc(O)cc3O[C@H]2c2ccc(O)c(O)c2)[C@H](O)[C@H](O)[C@H]1O [Neoisoastilbin]	23.6	
CC1(C)CC[C@]2(C(=O)O[C@@H]3O[C@H](CO)[C@@H](O)[C@H](O)[C@H]3O)[C@H](O)C[C@]3(C)C(=CC[C@@H]4[C@@]5(C)CC[C@H](O[C@@H]6O[C@H](CO)[C@@H](O)[C@H](O)[C@H]6O)C(C)(C)[C@@H]5CC[C@]43C)[C@@H]2C1 [Eclalbasaponin I]	18.5	
CC(=O)OCC(=O)[C@@]1(O)CC[C@H]2[C@@H]3CCC4=CC(=O)CC[C@]4(C)[C@H]3C(=O)C[C@@]21C [Cortisone acetate]	14.1	
Cc1ncc(C[n+]2csc(CCOP(=O)(O)O)c2C)c(N)n1 [Thiamine monophosphate (chloride) (dihydrate)]	12.1	
C[S+](CCC(N)C(=O)[O-])C[C@H]1O[C@@H](n2cnc3c(N)ncnc32)[C@H](O)[C@@H]1O (mixture of isomers) [S-Adenosyl-DL-methionine]	7.2	
C[C@]12CCC(=O)C[C@H]1CC[C@@H]1[C@@H]2[C@@H](O)C[C@@]2(C)[C@H]1CC[C@]2(O)C(=O)CO [5β-Dihydrocortisol]	24	
COc1cc(O)c(C(C)=O)c(OC)c1 [Xanthoxylin]	7.1	
CC(C)=C[C@H]1C[C@](C)(O)[C@@H]2[C@H]3CC[C@@H]4[C@@]5(C)CC[C@H](O[C@@H]6OC[C@H](O)[C@H](O[C@@H]7O[C@H](CO)[C@@H](O)[C@H](O)[C@H]7O[C@@H]7OC[C@@H](O)[C@H](O)[C@H]7O)[C@H]6O[C@@H]6O[C@@H](C)[C@H](O)[C@@H](O)[C@H]6O)C(C)(C)[C@@H]5CC[C@@]4(C)[C@@]34CO[C@@]2(C4)O1 [Jujuboside B]	25.2	
CC1(C)CC[C@]2(C(=O)O[C@@H]3O[C@H](CO[C@@H]4O[C@H](CO)[C@@H](O)[C@H](O)[C@H]4O)[C@@H](O)[C@H](O)[C@H]3O)CC[C@]3(C)C(=CC[C@@H]4[C@@]5(C)CC[C@H](O[C@@H]6OC[C@H](O)[C@H](O)[C@H]6O)[C@@](C)(CO)[C@@H]5CC[C@]43C)[C@@H]2C1 [Asperosaponin VI]	56.6	
C=C(C)[C@@H]1CCC2=CCC[C@@H](C)[C@]2(C)C1 [Valencene]	10.6	
O=C1c2c(O)cc(O)cc2O[C@H](c2ccc(O)c(O)c2)[C@H]1O [Taxifolin]	21.5	
CC(C)(O)CC[C@@H](O)[C@](C)(O)[C@H]1CC[C@@]2(O)C3=CC(=O)[C@@H]4C[C@@H](O)[C@@H](O)C[C@]4(C)[C@H]3CC[C@]12C [Crustecdysone]	13.7	

SMILES	229E Inhibition rate [%]	229E Inhibition rate (229E Inhibition rate, 24 h) [%]
COc1ccc2c(c1O)-c1c(O)c(OC)cc3c1[C@H](C2)[N+](C)(C)CC3 [(+)-Magnoflorine (chloride)]	15.4	
COc1cc2c(cc1OC)-c1c(OC)c(OC)cc3c1[C@H](C2)N(C)CC3 [Glaucine]	14.2	
CCCCCC/C=C\CCCC(=O)O [cis-5-Dodecenoic acid]	63.5	
CCCCC/C=C\C/C=C\CCCCCCCC(=O)NCc1ccccc1 [N-Benzyllinoleamide]	24.5	
C[C@H]1C(=O)O[C@@H]2CCN3CC=C(COC(=O)[C@](C)(O)[C@]1(C)O)[C@H]23 [Monocrotaline]	13	
Nc1ccccc1C(=O)C[C@H](N)C(=O)O [2-Amino-4-(2-aminophenyl)-4-oxobutanoic acid]		45.7
CN1C[C@@H]2C[C@H](C1)c1cccc(=O)n1C2 [N-Methylcytisine]	23.5	
O=C1c2cccc(O)c2C(=O)c2c(O)cc(CO)cc21 [Aloe emodin]	13.6	
CC1(C)O[C@H]1COc1c2ccoc2cc2oc(=O)ccc12 [Oxypeucedanin]	0	
O=Cc1ccoc1 [3-Furaldehyde]	22	
C=CCC1=C[C@]2(OC)C(=O)C(OC)(OC)[C@H]1[C@@H]1C(OC)(OC)C(=O)C(OC)=C[C@@]12CC=C [Asatone]	27.8	
C=C(C)[C@H](CC=C(C)C)Cc1c(O)cc(OC)c2c1O[C@H](c1ccc(O)cc1OC)CC2=O [(2S)-2'-Methoxykurarinone]	62.1	
O=C1c2cc(CO)cc(O)c2C(=O)c2c(O[C@@H]3O[C@H](CO)[C@@H](O)[C@H](O)[C@H]3O)cccc21 [Aloe-emodin-8-O-β-D-glucopyranoside]	29.4	
C[C@H](CC[C@@]1(O)O[C@H]2C[C@H]3[C@@H]4CC=C5C[C@@H](O[C@@H]6O[C@H](CO)[C@@H](O)[C@H](O[C@@H]7O[C@H](CO)[C@@H](O)[C@H](O)[C@H]7O)[C@H]6O[C@@H]6O[C@@H](C)[C@H](O)[C@@H](O)[C@H]6O)CC[C@]5(C)[C@H]4CC[C@]3(C)[C@H]2[C@@H]1C)CO[C@@H]1O[C@H](CO)[C@@H](O)[C@H](O)[C@H]1O [Protogracillin]	3.2	
C[C@@H]1C[C@H]2O[C@@]3(O[C@@H]2C(C)(C)O)[C@H](O)[C@@]2(C)[C@@H]4CC[C@H]5C(C)(C)[C@@H](O)CC[C@@]56C[C@@]46CC[C@]2(C)[C@@H]13 [Cimigenol]	36.6	
COc1cc2oc(-c3ccccc3)cc(=O)c2c(OC)c1OC [5,6,7-Trimethoxyflavone]	28.5	
COc1c(O[C@@H]2O[C@H](C(=O)O)[C@@H](O)[C@H](O)[C@H]2O)cc(O)c2c(=O)cc(-c3ccccc3)oc12 [Wogonoside]	11.8	
CC(C)(N)C(=O)O [NSC 16590]	10.2	
CCCCCC/C=C\CCCCCCCC(=O)OC [Methyl palmitoleate]	6.5	
